For this assay, the system named is P388 leukemia ip, CD2F1 mice, survival T/C. As to the kind of experiment: NCI In Vivo Anticancer Drug Screen. Data for tumor model P388 Leukemia (intraperitoneal) in CD2F1 (CDF1) mice. To be noted: T/C endpoint: median survival time, higher T/C = longer survival.
The mark [1] stands for this setting: dose: 100.0 mg/kg/injection, schedule: Q01DX005 (ip), vehicle: saline with Tween-80.
[2] abbreviates: dose: 200.0 mg/kg/injection, schedule: Q01DX005 (ip), vehicle: saline with Tween-80.
Setting [3] is: dose: 400.0 mg/kg/injection, schedule: Q04DX003 (ip), vehicle: saline.

The list does not hold the whole screen: it gathers tests that were run many times, whatever their T/C, doses with no T/C, and many T/C values between a quarter and a half above the control. Further doses and runs are listed elsewhere. T/C: endpoint of the treated group in % of that of the vehicle group. Some doses have a count of surviving animals in place of a T/C: the source files T/C as zero there, which appears to mark a toxic dose or a test without result, not a measured value. Some doses without a T/C left all or most animals alive at the check, yet need not have been tolerated: the source hardly ever lists a survival T/C far under the control, and the zero likely stands for such cases as well. Survivors were counted at the toxicity check, usually on the fifth day, unless a day is given; later deaths do not show. Schedules are NCI's codes, read here as Q, the interval in days (D) or hours (H), X, the number of doses. Some entries hold several experiments; their values stand side by side, smallest first. Where survival is the endpoint, this PubChem deposit counts one and a half times the control or more as active, and values a quarter to a half above the control carry no call in these data; other NCI protocols may use other cut-offs. Some T/C values are followed by the survivors on the day toxicity was checked, most often the fifth; where none is given, no animal had died by that day.

Consider `COC(=O)CCC(=O)C(C#N)c1ccc(Cl)c(Cl)c1` (stereo unspecified), for which the survivor count (dose: 240.0 mg/kg/injection, schedule: Q01DX005 (ip), vehicle: saline with Tween-80) is recorded as 5 of 6.

`CCOC(=O)N1C(=O)C=CC1=O`: under “dose: 300.0 mg/kg/injection, schedule: Q01DX009 (ip), vehicle: saline with Tween-80”, the survivor count is on record as 0 of 6.

Consider `CC(=O)C[n+]1ccc(C)cc1Sc1ccccc1C`, for which the T/C under setting [1] was 125 % of control. Further, the survivor count under setting [2] is listed as 0 of 5.

`N#CC(C#N)=C(C#N)C#N`: for the setting “dose: 400.0 mg/kg/injection, schedule: Q04DX003 (ip), vehicle: saline with Tween-80”, the survivor count is given as 0 of 6.

For the molecule `CS(=O)(=O)OCC(O)C(O)CI` (stereo unspecified), where the note is “dose: 200.0 mg/kg/injection, schedule: Q01DX005 (ip), vehicle: saline”, the survivor count is reported as 6 of 6.

`COc1cccc(/C=N/NC(=O)c2ccccc2N2CCCC2)c1O`: under “dose: 400.0 mg/kg/injection, schedule: Q01DX009 (ip), vehicle: olive oil, sesame oil, peanut oil”, the survivor count is on record as 4 of 6.

On to `Cc1ccc(Nc2ccc(Nc3ccc(C)cc3)c3c2C(=O)c2cc(Cl)c(Cl)cc2C3=O)cc1`, for which the T/C (dose: 200.0 mg/kg/injection, schedule: Q01DX009 (ip), vehicle: Klucel (hydroxypropylcellulose) (HPC)) was 129 % of control [4 of 6 alive]. The survivor count (dose: 400.0 mg/kg/injection, schedule: Q01DX009 (ip), vehicle: Klucel (hydroxypropylcellulose) (HPC)) was 3 of 6.

Regarding `COC(=O)c1[nH]c(=O)[nH]c(=O)c1F`, the T/C (dose: 2.0 mg/kg/injection, schedule: Q01DX009 (ip), vehicle: saline with Tween-80) is 136 % of control; the T/C (dose: 4.0 mg/kg/injection, schedule: Q01DX009 (ip), vehicle: saline with Tween-80) was 145 % of control; the T/C (dose: 33.0 mg/kg/injection, schedule: Q04DX003 (ip), vehicle: saline with Tween-80) is 130 % of control; the T/C (dose: 75.0 mg/kg/injection, schedule: Q04DX003 (ip), vehicle: saline with Tween-80) was 130 % of control.

`COC(=O)[C@@H]1c2cc3c(c(O)c2[C@@H](OC2OC(C)C(OC)C(C)(OC)C2OC)C[C@]1(C)O)C(=O)c1c(O)cc2c(c1C3=O)O[C@H]1O[C@]2(C)[C@H](O)[C@@H](N(C)C)[C@@H]1O` (stereo partly specified): the T/C was 129 and 133 % of control (dose: 0.25 mg/kg/injection, schedule: Q01DX009 (ip), vehicle: saline + alcohol); 127 % of control (dose: 0.25 mg/kg/injection, schedule: Q01DX009 (ip), vehicle: saline); 132 and 140 % of control [5 of 6 alive] (dose: 0.5 mg/kg/injection, schedule: Q01DX009 (ip), vehicle: saline + alcohol); 147 % of control (dose: 0.5 mg/kg/injection, schedule: Q01DX009 (ip), vehicle: saline); 131 % of control (dose: 0.5 mg/kg/injection, schedule: Q04DX003 (ip), vehicle: saline); 138 % of control (dose: 1.0 mg/kg/injection, schedule: Q04DX003 (ip), vehicle: other). Further, the T/C is 127 % of control (dose: 1.0 mg/kg/injection, schedule: Q04DX003 (ip), vehicle: saline); 126 % of control (dose: 1.2 mg/kg/injection, schedule: Q04DX003 (ip), vehicle: water); 138 % of control (dose: 2.0 mg/kg/injection, schedule: Q04DX003 (ip), vehicle: other); 125 % of control (dose: 2.0 mg/kg/injection, schedule: Q04DX003 (ip), vehicle: saline); 137 % of control (dose: 2.0 mg/kg/injection, schedule: Q04DX003 (ip), vehicle: water); 138 % of control (dose: 4.0 mg/kg/injection, schedule: Q04DX003 (ip), vehicle: other). The T/C is 130 % of control (dose: 250.0 micrograms/kg/injection, schedule: Q01DX009 (ip), vehicle: other); 130 % of control (dose: 250.0 micrograms/kg/injection, schedule: Q01DX009 (ip), vehicle: saline); 130 % of control (dose: 375.0 micrograms/kg/injection, schedule: Q01DX009 (ip), vehicle: saline); 146 % of control (dose: 500.0 micrograms/kg/injection, schedule: Q01DX009 (ip), vehicle: other); 137 % of control (dose: 500.0 micrograms/kg/injection, schedule: Q01DX009 (ip), vehicle: saline); 144 % of control (dose: 750.0 micrograms/kg/injection, schedule: Q01DX009 (ip), vehicle: saline). The T/C by setting is: (dose: 750.0 micrograms/kg/injection, schedule: Q04DX003 (ip), vehicle: saline) 130 % of control; (dose: 1000.0 micrograms/kg/injection, schedule: Q01DX009 (ip), vehicle: other) 128 % of control; (dose: 1000.0 micrograms/kg/injection, schedule: Q04DX003 (ip), vehicle: saline) 133 % of control; (dose: 1500.0 micrograms/kg/injection, schedule: Q04DX003 (ip), vehicle: saline) 130 % of control; (dose: 2000.0 micrograms/kg/injection, schedule: Q04DX003 (ip), vehicle: saline) 130 % of control. For the same molecule, the survivor count was 6 of 6 (dose: 1.0 mg/kg/injection, schedule: Q01DX009 (ip), vehicle: saline + alcohol); 5 of 6 (dose: 2.0 mg/kg/injection, schedule: Q01DX009 (ip), vehicle: other); 4 of 6 and 6 of 6 (dose: 2.0 mg/kg/injection, schedule: Q01DX009 (ip), vehicle: saline + alcohol); 6 of 6 (dose: 2.0 mg/kg/injection, schedule: Q01DX009 (ip), vehicle: saline); 6 of 6 (dose: 2.0 mg/kg/injection, schedule: Q01DX010 (ip), vehicle: saline); 0 of 6 (dose: 4.0 mg/kg/injection, schedule: Q01DX010 (ip), vehicle: saline). Besides, the survivor count is given as 8 of 8 (dose: 4.0 mg/kg/injection, schedule: Q04DX003 (ip), vehicle: clinical formulation); 6 of 6 (dose: 4.0 mg/kg/injection, schedule: Q04DX003 (ip), vehicle: saline); 6 of 6 (dose: 2000.0 micrograms/kg/injection, schedule: Q01DX009 (ip), vehicle: other); 6 of 6 (dose: 2000.0 micrograms/kg/injection, schedule: Q01DX009 (ip), vehicle: saline).

With `CSC(=S)/C=C(\O)c1ccccc1`, the survivor count under setting [3] is given as 0 of 6.

As for `CCCCCCCCCCCCCCCCCC[N+]1(CCCC)CCOCC1`, the survivor count was 5 of 6 (dose: 100.0 mg/kg/injection, schedule: Q01DX009 (ip), vehicle: saline with Tween-80) and 4 of 6 (dose: 200.0 mg/kg/injection, schedule: Q01DX009 (ip), vehicle: saline with Tween-80).

As for `O=C(c1ccc(F)cc1)c1no[n+]([O-])c1C(=O)c1ccc(F)cc1`, the survivor count (dose: 150.0 mg/kg/injection, schedule: Q01DX009 (ip), vehicle: saline with Tween-80) was 2 of 6.

Turning to `O=C(NC1=C(N2CC2)C(=O)C(NC(=O)OCCO)=C(N2CC2)C1=O)OCCO`, the T/C reads like this: (dose: 0.18 mg/kg/injection, schedule: Q01DX009 (ip), vehicle: saline) 131 % of control; (dose: 0.37 mg/kg/injection, schedule: Q01DX009 (ip), vehicle: saline) 140 % of control; (dose: 0.75 mg/kg/injection, schedule: Q01DX009 (ip), vehicle: saline) 132 % of control.

For `CC(C)=CC(=O)Sc1ccccc1`, the survivor count by setting is: under setting [1], 0 of 6; under setting [2], 0 of 6.

`CC[C@@H]1O[C@@H]([C@@H]2CC[C@](O)([C@]3(C)CC[C@@H]([C@@H](C)[C@@]4(O)CC[C@H](C)[C@@H](C[C@@]5(O)O[C@@H]([C@@H](C)[C@H](O)C[C@H]6CC[C@H](C)[C@@H]([C@@H](C)C(=O)O)O6)CC[C@@H]5C)O4)O3)O2)CC[C@@]1(C)O`: the survivor count (dose: 0.5 mg/kg/injection, schedule: Q01DX009 (ip), vehicle: saline with Tween-80) was 5 of 6 and the survivor count (dose: 1.0 mg/kg/injection, schedule: Q01DX009 (ip), vehicle: saline with Tween-80) is listed as 0 of 6.

Take `CN(C)CCCCCC[N+](C)(C)Cc1ccc(C[N+](C)(C)CCCCCC[N+](C)(C)Cc2ccc(CCl)cc2)cc1`: the survivor count is 0 of 6 (dose: 100.0 mg/kg/injection, schedule: Q04DX003 (ip), vehicle: saline); 0 of 6 (dose: 200.0 mg/kg/injection, schedule: Q04DX003 (ip), vehicle: saline); 0 of 6 under setting [3].

Take `N#C/C(=C1/OC(=N)C(c2ccc(Cl)cc2)C1=O)c1ccc(Cl)cc1` (stereo unspecified): the survivor count under setting [2] is on record as 2 of 6.

(Values after PubChem BioAssay AID330 (DTP/NCI, 2004).)
